# PubChem BioAssay AID1224828 | NIAID | 2016
# Assay: 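Find genes required for NF-kappaB p65 moving into the nucleus after LPS in mouse macrophages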 (primary screen)
# System: mouse RAW264.7 G9 macrophage reporter cells (GFP-p65, Tnf promoter-mCherry)
# Reagents: siRNA pool against mouse genes, 100 nM
# Timing: 2 days siRNA transfection, then 40 min LPS before fixation
# Treatment: LPS (Salmonella minnesota R595) at 10 ng/ml
# Detection: 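Imaged p65 nuclear translocation ratio, normalised to the plate median, converted to robust z-scores and averaged across two replicates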
# Scale: p65 translocation robust z-score: higher = more nuclear NF-kappaB p65 after LPS than the plate median; nuclear/cytoplasmic p65 ratio: higher = more nuclear NF-kappaB p65
# Hit rule: 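Active if robust z is above 3.3 (negative regulators) or below -1.56, the Tlr4 control median (positive regulators); activity score 50 or more; control wells not called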
# Calls: active = hit (p65 shift raised or lowered); inactive = no clear change
# This is one part, drawn at random, of about 17,000 reagents tested. 762 of all reagents (4.5%) were called active. 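Active calls include both raised and lowered p65 entry, mostly lowered; wells with fewer than 50 cells lack a z-score.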 Raw values vary from plate to plate and are shown uncorrected. A reagent listed more than once was tested more than once; the source does not tell the runs apart.
gene,p65 translocation robust z-score,"nuclear/cytoplasmic p65 ratio, rep 1","nuclear/cytoplasmic p65 ratio, rep 2",low cell count flag,call
Chrna1,0.34,1.52,1.41,enough cells to score,inactive
Rab9b,0.07,1.64,1.6,enough cells to score,inactive
Tlr12,,1.16,1.08,fewer than 50 cells per well; well left out of scoring,inactive
Or13a17,-0.05,1.47,1.24,enough cells to score,inactive
Akr1d1,0.15,1.64,1.64,enough cells to score,inactive
Exoc3,0.45,1.47,1.3,enough cells to score,inactive
Lst1,-0.66,1.62,1.27,enough cells to score,inactive
Mrpl35,1.19,2.01,1.74,enough cells to score,inactive
Or5b106,-1.84,1.36,1.16,enough cells to score,active
Tuba3b,-1.32,1.39,1.26,enough cells to score,inactive
C230029D21Rik (retired record),,1.39,1.41,fewer than 50 cells per well; well left out of scoring,inactive
Gas7,-1.18,1.22,1.28,enough cells to score,inactive
Rad51ap1,-0.15,1.51,1.35,enough cells to score,inactive
Hsd17b7,-0.09,1.43,1.36,enough cells to score,inactive
Coq7,0.92,1.78,1.86,enough cells to score,inactive
Pygb,0.8,1.52,1.28,enough cells to score,inactive
Map7d3,,1.39,1.59,fewer than 50 cells per well; well left out of scoring,inactive
Dusp1,-0.6,1.52,1.31,enough cells to score,inactive
Maoa,-0.09,1.41,1.35,enough cells to score,inactive
Exoc3l,0.71,1.74,1.85,enough cells to score,inactive
Yipf1,2.25,1.64,1.93,enough cells to score,inactive
Eya1,0.25,1.57,1.33,enough cells to score,inactive
Dhx33,1.67,1.71,1.89,enough cells to score,inactive
Clu,0.22,1.52,1.38,enough cells to score,inactive
Ogn,0.51,1.74,1.65,enough cells to score,inactive
Magea3,1.26,1.95,1.7,enough cells to score,inactive
Stx16,-1.02,1.28,1.28,enough cells to score,inactive
Prr14l,,1.38,1.49,fewer than 50 cells per well; well left out of scoring,inactive
Oas1b,,1.71,0,fewer than 50 cells per well; well left out of scoring,inactive
Pias4,-0.05,1.58,1.32,enough cells to score,inactive
Naxd,-0.25,1.37,1.54,enough cells to score,inactive
Tusc3,0.02,1.53,1.5,enough cells to score,inactive
Prkg2,,2.03,1.33,fewer than 50 cells per well; well left out of scoring,inactive
Utp3,-1.13,1.42,1.59,enough cells to score,inactive
Gpr137b,-0.28,1.49,1.53,enough cells to score,inactive
Best2,0.69,1.45,1.33,enough cells to score,inactive
Or4k48,-1.5,1.35,1.25,enough cells to score,inactive
Lamtor2,0.56,1.8,1.63,enough cells to score,inactive
Vmn1r11,1.44,1.62,1.35,enough cells to score,inactive
Vsir,,1.03,1.33,fewer than 50 cells per well; well left out of scoring,inactive
Sephs2,-0.37,1.36,1.33,enough cells to score,inactive
Rbm45,-0.05,1.42,1.42,enough cells to score,inactive
Mat1a,-0.21,1.41,1.32,enough cells to score,inactive

Ordered by “nuclear/cytoplasmic p65 ratio, rep 2” (highest first): 8 of the entries above
gene,p65 translocation robust z-score,"nuclear/cytoplasmic p65 ratio, rep 1","nuclear/cytoplasmic p65 ratio, rep 2",low cell count flag,call
Lamtor2,0.56,1.8,1.63,enough cells to score,inactive
Utp3,-1.13,1.42,1.59,enough cells to score,inactive
Gpr137b,-0.28,1.49,1.53,enough cells to score,inactive
Vmn1r11,1.44,1.62,1.35,enough cells to score,inactive
Prkg2,,2.03,1.33,fewer than 50 cells per well; well left out of scoring,inactive
Best2,0.69,1.45,1.33,enough cells to score,inactive
Vsir,,1.03,1.33,fewer than 50 cells per well; well left out of scoring,inactive
Or4k48,-1.5,1.35,1.25,enough cells to score,inactive

Additional entries:
gene,p65 translocation robust z-score,"nuclear/cytoplasmic p65 ratio, rep 1","nuclear/cytoplasmic p65 ratio, rep 2",low cell count flag,call
Tmem115,-1.04,1.46,1.46,enough cells to score,inactive
Pogk,-0.88,1.22,1.15,enough cells to score,inactive
Or6c219,-0.8,1.4,1.18,enough cells to score,inactive
Zswim2,,1.74,0.903,fewer than 50 cells per well; well left out of scoring,inactive
Dapk1,,1.61,1.24,fewer than 50 cells per well; well left out of scoring,inactive
Mocs1,-1.07,1.24,1.26,enough cells to score,inactive
Steap1,0.17,1.47,1.23,enough cells to score,inactive
Ipp,-0.03,1.66,1.32,enough cells to score,inactive
Slc2a4,0.42,1.63,1.53,enough cells to score,inactive
Or1e30,-0.05,1.68,1.35,enough cells to score,inactive
Zfp108,,1.17,1.17,fewer than 50 cells per well; well left out of scoring,inactive
Kcna4,-1.98,1.25,1.09,enough cells to score,active
Uba5,,1.34,1.15,fewer than 50 cells per well; well left out of scoring,inactive
Grk3,-1.21,1.43,1.28,enough cells to score,inactive
Grk3,-0.1,1.5,1.56,enough cells to score,inactive
Fabp4,0.07,1.49,1.36,enough cells to score,inactive
Daglb,0.25,1.49,1.28,enough cells to score,inactive
Sstr1,,1.3,1.28,fewer than 50 cells per well; well left out of scoring,inactive
Siglech,-1.22,1.44,1.42,enough cells to score,inactive
Cdk14,-1.08,1.54,1.22,enough cells to score,inactive
Nudc,-1.55,1.34,1.2,enough cells to score,inactive
Alkbh3,0.68,1.64,1.79,enough cells to score,inactive
Plekha5,-1.16,1.42,1.46,enough cells to score,inactive
Armh3,-0.38,1.38,1.49,enough cells to score,inactive
Abl2,-0.88,1.58,1.27,enough cells to score,inactive
Celsr2,-1.3,1.38,1.34,enough cells to score,inactive
Dsc3,,1.33,1.3,fewer than 50 cells per well; well left out of scoring,inactive
Oprd1,1.23,1.61,1.84,enough cells to score,inactive
Dcdc2a,-0.54,1.56,1.4,enough cells to score,inactive
Pcif1,-1.89,1.35,1.17,enough cells to score,active
Psg18,1.35,1.52,1.39,enough cells to score,inactive
Sycp3,1.07,1.47,1.34,enough cells to score,inactive
